Consider 1 substance from patent US20140193843A1 (Institut Pasteur, priority 2008, published 2014).

No end group written: not given here.

Series [1] is described as follows: Quantification of Opiorphin in the tears of human volunteers (ELISA).
Series [2] can be described thus: Quantification of Opiorphin in the seminal fluid from human volunteers (ELISA).
A short description of series [3]: Quantification of Opiorphin in the saliva from healthy human volunteers (ELISA).
Series [4] in a line: Quantification of Opiorphin in plasma from healthy human volunteers (SepPak, HPLC, ELISA). The following applies: for Mean ± SEM ng Opiorphin/ml initial plasma volume: extract concentrated 53-fold.
[5] abbreviates: volunteers with congenital bilateral agenesis, n=4.

QRFSR [Opiorphin, QRFSR]: the “Opiorphin in tears, samples at or below detection limit” value in series [1] (healthy men volunteers, 6 samples of 9) is “(≦2 ng/ml)”; in series [1] (healthy women volunteers, 1 sample of 14), “(≦2 ng/ml)”. For the same substance, the “Mean ± SEM ng Opiorphin/ml tears” value stood at 49±25 ng Opiorphin/ml tears in series [1] (healthy men volunteers, n=9) and 317±79 ng Opiorphin/ml tears in series [1] (healthy women volunteers, n=14). The “Mean ± SEM ng Opiorphin/ejaculation” value was determined as 43.6±10.2 ng Opiorphin/ejaculation in series [2] (healthy volunteers, n=11) and 6.4 ± 1.6 ng Opiorphin/ejaculation in series [2] (setting [5]). Further, the “Mean ± SEM ng Opiorphin/ml sperm” value in series [2] (healthy volunteers, n=11, EDTA plus HCl before acid-methanol extraction) was found to be 12.9±1.8 ng Opiorphin/ml sperm; in series [2] (setting [5]), 4.9±1.0 ng Opiorphin/ml sperm. Also, the “Mean ± Standard Error of Mean (SEM) ng Opiorphin/ml saliva” value in series [3] (healthy men, basal condition, n=10) came out at 59±17 ng Opiorphin/ml saliva; in series [3] (healthy men, stimulated condition (citric acid), n=6), 738±146 ng Opiorphin/ml saliva; in series [3] (healthy women, basal condition, n=10 (one sample excluded)) it was 61±23 ng Opiorphin/ml saliva; in series [3] (healthy women, stimulated condition (citric acid), n=13 (one sample excluded)), 247±68 ng Opiorphin/ml saliva. The “Mean ± SEM ng Opiorphin/ml concentrated extract sample” value in series [4] (healthy man 1a-11, 9 determinations) is 73 ± 11 ng Opiorphin/ml concentrated extract sample; in series [4] (healthy man 1a-12, 9 determinations), 142 ± 33 ng Opiorphin/ml concentrated extract sample; in series [4] (healthy woman 1b-3, 4 determinations), 34 ± 3 ng Opiorphin/ml concentrated extract sample; in series [4] (healthy woman 1b-15, 4 determinations), 79 ± 13 ng Opiorphin/ml concentrated extract sample. Besides, the “Mean ± SEM ng Opiorphin/ml initial plasma volume” value in series [4] (healthy man 1a-11) is given as 1.4 ± 0.2 ng Opiorphin/ml initial plasma volume; in series [4] (healthy man 1a-12), 2.7 ± 0.6 ng Opiorphin/ml initial plasma volume; in series [4] (healthy woman 1b-3), 0.6 ± 0.1 ng Opiorphin/ml initial plasma volume; in series [4] (healthy woman 1b-15), 1.5 ± 0.2 ng Opiorphin/ml initial plasma volume.
